Source: patent US11760889B2, “Unsaturated fatty alcohol derivatives from natural oil metathesis” (priority 2012, dated 2023)
Values joined by “and” are separate entries in the source; they are usually repeats but may differ in a detail not shown here. Equal entries are not always repeated.

Experiments:
[1] = Personal care cleansing: mechanical shake foam test; settings: 0.2% total surfactant actives, 25° C. tap water
[2] = Agricultural dispersant screening (sedimentation of pesticide powder in hard water); design: key to Sedimentation results at 1 h: Trace of sediment=“Tr”; flocked is also abbreviated as “FI.”
[3] = Specialty foamer (gypsum): foam stability, drainage method; design: key to Rating: These compositions are identified as “good” performers as gypsum foam destabilizers; settings: 342 ppm hard water; for Liquid Volume (mL) vs. Drain Time (min): 0.4 wt. % active; for Rating: potential foamers for gypsum
[4] = Chlorothalonil, test water 342 ppm
[5] = Chlorothalonil, test water 1000 ppm
[6] = Imidacloprid, test water 342 ppm
[7] = Imidacloprid, test water 1000 ppm
[8] = Tebuconazole, test water 342 ppm
[9] = Tebuconazole, test water 1000 ppm

Compound	Foam Height, 5 min ([1]; Castor oil added)	Foam Height, initial ([1]; Castor oil added)	Foam Height, 5 min ([1]; No oil added)	Foam Height, initial ([1]; No oil added)	Sedimentation results at 1 h ([2]; Atrazine, test water 342 ppm) [mL]	Sedimentation results at 24 h ([2]; Atrazine, test water 342 ppm) [mL]	Sedimentation results at 24 h ([2]; Atrazine, test water 1000 ppm) [mL]	Sedimentation results at 1 h [2, 4] [mL]	Sedimentation results at 24 h [2, 4] [mL]	Sedimentation results at 1 h [2, 5] [mL]	Sedimentation results at 24 h [2, 5] [mL]	Sedimentation results at 1 h ([2]; Diuron, test water 342 ppm) [mL]	Sedimentation results at 24 h ([2]; Diuron, test water 342 ppm)	Sedimentation results at 1 h ([2]; Diuron, test water 1000 ppm)	Sedimentation results at 24 h ([2]; Diuron, test water 1000 ppm)	Sedimentation results at 1 h [2, 6]	Sedimentation results at 1 h [2, 7]	Sedimentation results at 1 h [2, 8]	Sedimentation results at 1 h [2, 9]	Sedimentation results at 1 h ([2]; Atrazine, test water 1000 ppm) [mL]	other results
C12 Alcohol Ammonium Sulfate [A12-2]	150 mL	310 mL	350 mL	390 mL	–	–	–	–	–	–	–	–	–	–	–	–	–	–	–	–	–
7 Mole Ethoxylated C10 Alcohol, Sodium Sulfate [A10-15]	–	–	–	–	0.25 to 0.5	1.0 to 1.25	0.75 to 1.0	0.25 to 0.75	1.5 to 1.75	0.75 to 1.25	2	0.5 to 0.75	1.25 to 1.5 mL	0.5 to 0.75 mL	1.25 to 1.5 mL	flocked	flocked	flocked	flocked	–	–
1 Mole Ethoxylated C10 Alcohol, Ammonium Sulfate [A10-5]	–	–	–	–	0.25	1.25 to 1.5	1 to 1.25	0.5 to 1.5	2 to 2.25	0.5 to 0.75	1 to 1.5	0.5	0.75 to 1 mL	0.5 to 0.75 mL	1 mL	flocked	flocked	flocked	flocked	0.25	–
15 Mole Ethoxylated C10 Alcohol, Ammonium Sulfate [A10-17]	–	–	–	–	0.25 to 0.75	1	1.0 to 1.25	0.75 to 1.25	1.75 to 2.0	0.5 to 0.75	1.25 to 1.5	0.5 to 0.75	1.0 to 1.25 mL	1.25 to 1.5 mL	Fl.	flocked	flocked	flocked	flocked	0.25 to 0.5	–
CCCCCCCCCCOS(=O)(=O)[O-].[Na+] [C5, sodium decyl sulfate, reference compound]	170 mL	170 mL	400 mL	400 mL	–	–	–	–	–	–	–	–	–	–	–	–	–	–	–	–	–
C=CCCCCCCCCOS(=O)(=O)[O-].[Na+] [A10-3]	–	–	–	–	–	–	–	–	–	–	–	–	–	–	–	–	–	–	–	–	Liquid Volume (mL) vs. Drain Time (min) ([3]; drain time 0.5 min): 3.00 mL; Liquid Volume (mL) vs. Drain Time (min) ([3]; drain time 1.0 min): 5.75 mL; Liquid Volume (mL) vs. Drain Time (min) ([3]; drain time 1.5 min): 8.00 mL; Liquid Volume (mL) vs. Drain Time (min) ([3]; drain time 2.0 min): 10.25 mL; Liquid Volume (mL) vs. Drain Time (min) ([3]; drain time 2.5 min): 12.50 mL; Liquid Volume (mL) vs. Drain Time (min) ([3]; drain time 3.0 min): 14.50 mL; Liquid Volume (mL) vs. Drain Time (min) ([3]; drain time 3.5 min): 16.00 mL; Liquid Volume (mL) vs. Drain Time (min) ([3]; drain time 4.0 min): 17.75 mL; Rating [3]: good
5 Mole Ethoxylated C10 Alcohol, Sodium Sulfate [A10-12]	–	–	–	–	0.25	1	1	0.75	1.75 to 2.0	0.75 to 1.0	1.5 to 1.75	0.5 to 0.75	1.5 to 1.75 mL	0.75 mL	Fl.	2.0 to 2.25 mL	2 mL	flocked	flocked	0.25	Sedimentation results at 24 h [2, 6]: Fl.; Sedimentation results at 24 h [2, 7]: Fl.
1 Mole Ethoxylated C12 Alcohol, Ammonium Sulfate [A12-5]	350 mL	400 mL	420 mL	420 mL	0.25	1 to 1.25	1.0	0.25	1.0 to 1.25	0.25 to 0.5	1.0 to 1.25	0.5 to 0.75	1.0 to 1.25 mL	0.5 mL	0.75 to 1.0 mL	0.5 mL	1.0 mL	Tr	Tr	0.25	Sedimentation results at 24 h [2, 6]: 1.0 to 1.5 mL; Sedimentation results at 24 h [2, 7]: Fl.; Sedimentation results at 24 h [2, 8]: 0.5 to 0.75 mL; Sedimentation results at 24 h [2, 9]: 1 mL
3 Mole Ethoxylated C12 Alcohol, Sodium Sulfate [A12-9]	130 mL	300 mL	290 mL	440 mL	0.25	1 to 1.75	1.25 to 1.75	0.5 to 0.75	1.25 to 1.5	0.5	1.25 to 1.5	0.5	Fl.	flocked	–	1.75 to 2 mL	flocked	Tr	flocked	0.25	Sedimentation results at 24 h [2, 6]: Fl.; Sedimentation results at 24 h [2, 8]: 1.75 to 2.0 mL
CCCCC=CCCCCCCCCOS(=O)(=O)[O-].[Na+] (mixture of isomers) [A14-2, C14 alcohol sodium sulfate]	320 mL	322 mL	430 mL	430 mL	–	–	–	–	–	–	–	–	–	–	–	–	–	–	–	–	–
5 Mole Ethoxylated C10 Alcohol, Ammonium Sulfate [A10-11]	–	–	–	–	0.5	1.75	1.75 to 2	0.5 to 0.75	1.5 to 1.75	0.5	1 to 1.25	0.5	1 mL	0.75 mL	2 mL	flocked	flocked	flocked	flocked	0.5	–
sodium laureth sulfate [C4, reference compound]	350 mL and 340 mL	350 mL and 340 mL	440 mL and 450 mL and 430 mL	440 mL and 450 mL and 430 mL	–	–	–	–	–	–	–	–	–	–	–	–	–	–	–	–	–
1 Mole Ethoxylated C12 Alcohol, Sodium Sulfate [A12-6]	200 mL	400 mL	500 mL	500 mL	–	–	–	–	–	–	–	–	–	–	–	–	–	–	–	–	–
sodium laureth sulfate [C6, reference compound]	360 mL	360 mL	420 mL	420 mL	–	–	–	–	–	–	–	–	–	–	–	–	–	–	–	–	–
3 Mole Ethoxylated C12 Alcohol, Ammonium Sulfate [A12-8]	130 mL	420 mL	180 mL	440 mL	–	–	–	–	–	–	–	–	–	–	–	–	–	–	–	–	–
C=CCCCCCCCCOS(=O)(=O)O.N [A10-2]	–	–	–	–	–	–	–	–	–	–	–	–	–	–	–	–	–	–	–	–	Liquid Volume (mL) vs. Drain Time (min) ([3]; drain time 0.5 min): 0.75 mL; Liquid Volume (mL) vs. Drain Time (min) ([3]; drain time 1.0 min): 2.00 mL; Liquid Volume (mL) vs. Drain Time (min) ([3]; drain time 1.5 min): 3.50 mL; Liquid Volume (mL) vs. Drain Time (min) ([3]; drain time 2.0 min): 5.25 mL; Liquid Volume (mL) vs. Drain Time (min) ([3]; drain time 2.5 min): 6.75 mL; Liquid Volume (mL) vs. Drain Time (min) ([3]; drain time 3.0 min): 8.75 mL; Liquid Volume (mL) vs. Drain Time (min) ([3]; drain time 3.5 min): 10.50 mL; Liquid Volume (mL) vs. Drain Time (min) ([3]; drain time 4.0 min): 12.25 mL; Rating [3]: good
